Publication doi:10.1101/811059
No constants are given. Whether binding was seen depends on the method and setting. In cells and extracts the contact can be indirect. Binding calls can cover weak binding; strength is not graded here.

Chains of the proteins cited; added tags and fusions are not shown. Lines headed by an entry give the natural chain unless they say otherwise; changes in a name come on top.
UniProt Q9Z5D9: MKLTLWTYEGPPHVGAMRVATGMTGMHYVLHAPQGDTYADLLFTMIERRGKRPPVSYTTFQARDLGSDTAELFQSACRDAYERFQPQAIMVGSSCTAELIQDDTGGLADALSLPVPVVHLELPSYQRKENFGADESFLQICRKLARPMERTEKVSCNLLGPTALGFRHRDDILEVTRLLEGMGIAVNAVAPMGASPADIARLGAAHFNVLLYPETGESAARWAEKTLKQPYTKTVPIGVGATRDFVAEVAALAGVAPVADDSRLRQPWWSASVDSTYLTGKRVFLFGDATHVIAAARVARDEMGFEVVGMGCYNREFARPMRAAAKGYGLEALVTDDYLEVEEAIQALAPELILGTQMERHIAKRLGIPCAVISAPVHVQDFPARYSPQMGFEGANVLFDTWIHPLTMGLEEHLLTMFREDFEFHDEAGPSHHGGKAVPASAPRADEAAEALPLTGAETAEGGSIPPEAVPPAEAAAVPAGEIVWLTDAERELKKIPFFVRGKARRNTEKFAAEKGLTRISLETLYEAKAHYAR
UniProt Q9RFD4: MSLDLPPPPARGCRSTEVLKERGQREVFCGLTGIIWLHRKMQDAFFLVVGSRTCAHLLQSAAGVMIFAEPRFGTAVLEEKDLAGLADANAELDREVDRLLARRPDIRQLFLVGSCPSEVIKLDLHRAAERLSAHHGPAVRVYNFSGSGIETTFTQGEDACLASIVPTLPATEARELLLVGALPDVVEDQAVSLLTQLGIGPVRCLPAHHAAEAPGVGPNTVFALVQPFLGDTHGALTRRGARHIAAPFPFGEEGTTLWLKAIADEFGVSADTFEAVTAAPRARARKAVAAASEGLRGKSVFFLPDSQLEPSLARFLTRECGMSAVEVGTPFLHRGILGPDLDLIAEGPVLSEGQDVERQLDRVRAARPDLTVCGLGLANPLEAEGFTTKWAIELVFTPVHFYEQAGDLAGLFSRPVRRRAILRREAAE

Target: BchB (Rhodobacter sphaeroides) (UniProt Q9Z5D9)
Experiment: co-purification on Ni2+-NTA

## BchN (from UniProt Q9RFD4)
  binding: binds
